The text below walks through data of publication doi:10.1101/2025.11.10.686860.

Assay [1] deals with FLAG-KRAS 4B wild type, P01116. The assay is described as follows: co-IP. The following applies: remark: other sources report otherwise.
The target in another assay is FLAG-KRAS 4B G12A (UniProt P01116). The assay is described as follows: co-IP.
The next assay addresses FLAG-KRAS 4B G12C (UniProt P01116). The assay is described as follows: co-IP.
The next assay addresses FLAG-KRAS 4B G12D (UniProt P01116). Put plainly: co-IP.
In a further assay the target is FLAG-KRAS 4B Q61R (UniProt P01116). Put plainly: co-IP.
A further assay addresses FLAG-KRAS 4B S17N (UniProt P01116). Put plainly: co-IP.
The target of assay [2] is KRAS G12C (endogenous, H358 cells) (human (endogenous in H358)) (UniProt P01116). The assay is described as follows: pull-down.

No constants are given. Whether binding was seen depends on the method and setting. Binding seen in cells or lysates may run through a third protein. Some results given as binding are weak or reduced against the parent protein; the word gives no strength. For part of these data: Where a sequence is shown, tags or fusion partners need not be part of it.

B1: MYC-eIF2Bγ, Q9NR50 1-452 (protein)
chain: MEFQAVVMAVGGGSRMTDLTSSIPKPLLPVGNKPLIWYPLNLLERVGFEEVIVVTTRDVQKALCAEFKMKMKPDIVCIPDDADMGTADSLRYIYPKLKTDVLVLSCDLITDVALHEVVDLFRAYDASLAMLMRKGQDSIEPVPGQKGKKKAVEQRDFIGVDSTGKRLLFMANEADLDEELVIKGSILQKHPRIRFHTGLVDAHLYCLKKYIVDFLMENGSITSIRSELIPYLVRKQFSSASSQQGQEEKEEDLKKKELKSLDIYSFIKEANTLNLAPYDACWNACRGDRWEDLSRSQVRCYVHIMKEGLCSRVSTLGLYMEANRQVPKLLSALCPEEPPVHSSAQIVSKHLVGVDSLIGPETQIGEKSSIKRSVIGSSCLIKDRVTITNCLLMNSVTVEEGSNIQGSVICNNAVIEKGADIKDCLIGSGQRIEAKAKRVNEVIVGNDQLMEI
In the case of B1, the binding result in assay [1] is “no binding”.

B2: MYC-eIF2Bβ, P49770 1-351 (protein)
chain: MPGSAAKGSELSERIESFVETLKRGGGPRSSEEMARETLGLLRQIITDHRWSNAGELMELIRREGRRMTAAQPSETTVGNMVRRVLKIIREEYGRLHGRSDESDQQESLHKLLTSGGLNEDFSFHYAQLQSNIIEAINELLVELEGTMENIAAQALEHIHSNEVIMTIGFSRTVEAFLKEAARKRKFHVIVAECAPFCQGHEMAVNLSKAGIETTVMTDAAIFAVMSRVNKVIIGTKTILANGALRAVTGTHTLALAAKHHSTPLIVCAPMFKLSPQFPNEEDSFHKFVAPEEVLPFTEGDILEKVSVHCPVFDYVPPELITLFISNIGGNAPSYIYRLMSELYHPDDHVL
For B2, the binding result in assay [1] is listed as “no binding”.

B3: MYC-eIF2Bα (protein, UniProt Q14232 1-305)
chain: MDDKELIEYFKSQMKEDPDMASAVAAIRTLLEFLKRDKGETIQGLRANLTSAIETLCGVDSSVAVSSGGELFLRFISLASLEYSDYSKCKKIMIERGELFLRRISLSRNKIADLCHTFIKDGATILTHAYSRVVLRVLEAAVAAKKRFSVYVTESQPDLSGKKMAKALCHLNVPVTVVLDAAVGYIMEKADLVIVGAEGVVENGGIINKIGTNQMAVCAKAQNKPFYVVAESFKFVRLFPLNQQDVPDKFKYKADTLKVAQTGQDLKEEHPWVDYTAPSLITLLFTDLGVLTPSAVSDELIKLYL
In the case of B3, the binding entry is “binds” with FLAG-KRAS 4B G12A; “binds” in the assay with FLAG-KRAS 4B G12C; “binds” in the assay with FLAG-KRAS 4B G12D; “binds” with FLAG-KRAS 4B Q61R; “no binding” with FLAG-KRAS 4B S17N.

B4: MYC-eIF2Bα, Q14232 1-305 (protein)
chain: MDDKELIEYFKSQMKEDPDMASAVAAIRTLLEFLKRDKGETIQGLRANLTSAIETLCGVDSSVAVSSGGELFLRFISLASLEYSDYSKCKKIMIERGELFLRRISLSRNKIADLCHTFIKDGATILTHAYSRVVLRVLEAAVAAKKRFSVYVTESQPDLSGKKMAKALCHLNVPVTVVLDAAVGYIMEKADLVIVGAEGVVENGGIINKIGTNQMAVCAKAQNKPFYVVAESFKFVRLFPLNQQDVPDKFKYKADTLKVAQTGQDLKEEHPWVDYTAPSLITLLFTDLGVLTPSAVSDELIKLYL
Consider B4, for which the binding result in assay [1] is recorded as “no binding”.

B5: eIF2Bα (endogenous) (protein, UniProt Q14232 1-305)
chain: MDDKELIEYFKSQMKEDPDMASAVAAIRTLLEFLKRDKGETIQGLRANLTSAIETLCGVDSSVAVSSGGELFLRFISLASLEYSDYSKCKKIMIERGELFLRRISLSRNKIADLCHTFIKDGATILTHAYSRVVLRVLEAAVAAKKRFSVYVTESQPDLSGKKMAKALCHLNVPVTVVLDAAVGYIMEKADLVIVGAEGVVENGGIINKIGTNQMAVCAKAQNKPFYVVAESFKFVRLFPLNQQDVPDKFKYKADTLKVAQTGQDLKEEHPWVDYTAPSLITLLFTDLGVLTPSAVSDELIKLYL
For the molecule B5, in assay [2], the binding entry was “binds”.
